Test results taken from US9381193B2, “Contraceptive methods and compositions” (WASHINGTON UNIVERSITY, priority 2011, dated 2016).

How the values were obtained:
Type in all cases: in vivo, mouse
[1] = test system: FVB/NJ mice; assay: Artificially induced deciduoma in ovariectomized mice
Protocol: This induced deciduoma model allowed the study of the effect of increased DHEA on implantation independently of embryo development and ovarian function. Female mice 6-8 weeks of age were ovariectomized and rested for 2 weeks. […] At day 2 before induction, the experimental mice also began receiving DHEA at 2 mg/100 g of body weight. The control mice received no DHEA. At day 0, one uterine horn in each animal was subjected to a physical stimulus, 100 μL sesame seed oil injection, to induce a deciduoma. The second horn was left as the unstimulated internal control for each mouse. Day 0 in this case is equivalent to the day of embryo implantation in a physiological mouse pregnancy, which is 4 days post coitus. Five days after the oil injection, uterine horns were dissected out. First the gross anatomies of the uteri were assessed. […] In the same line of experiments, the serum hormone levels were also measured to confirm that findings were strictly the result of increased levels of DHEA.
Decidualization in vivo under chronically elevated levels of DHEA was also tested. […] A quantitative analysis of the decidual reaction in shown in FIG. 8B, where the mass of the uterine horns is shown. […]
To generate deciduomas 7-8 wk-old female FVB/NJ mice were used and treated as described previously. […] Serum DHEA, E2 and P4 levels were analyzed by ELISA assays (Alpco Immunoassays).

[2] = test system: FVB/NJ mice; assay: Ovarian histology and follicle counts in DHEA-fed mice
Source text: (§1) Female FVB/NJ mice were obtained from Jackson Laboratories (Bar Harbor, Me., USA). Regular rodent chow was supplemented with DHEA at 0.01%, 0.1% and 0.6% w/w. Three-week-old mice had access to food and water ad libitum. Mice were fed control or DHEA-supplemented chow for two weeks. The Animal Studies Committee at Washington University School of Medicine reviewed and approved all animal experiments. Animals were maintained according to the Guide for the Care and Use of Laboratory Animals provided by the Institute for Laboratory Animal Research.
For histological evaluation, one ovary from five mice in each group was fixed in Bouin's solution, transferred to 70% ethanol then embedded in paraffin and serial sectioned at 10 microns. Every tenth section was kept and stained with hematoxylin and eosin. Follicles with visible nuclei were classified as primordial, primary, secondary or antral. Corpora lutea were also counted. Follicle counts from each classification were summed for each mouse.

[3] = test system: FVB/NJ mice; assay: Serum hormone concentration in DHEA-fed mice (ELISA)
Source text: as §1
Control and DHEA-fed mice were superovulated with 10 IU pregnant mare serum gonadotropin (PMSG) by i.p. injection. DHEA, estradiol and testosterone serum concentrations were measured 48 hours later. For progesterone concentrations, mice were given an i.p. injection of 10 IU hCG 48 hours after PMSG and blood was collected 24 hours later. Mice were anesthetized with 50 μl ketamine and xylazine (1:1) and blood was collected by cardiac puncture. Serum was separated by centrifugation and stored at −20° C. ELISA assays were used to determine serum hormone concentrations (Alpco, Salem, N.H., USA).

[4] = test system: denuded GV oocytes; assay: ATP and citrate levels in single denuded GV oocytes of DHEA-fed mice
Source text: COCs were collected following superovulation with PMSG. Ovaries were removed and placed in M2 media (Sigma, St. Louis, Mo., USA). COCs were obtained by rupture of antral follicles with a syringe and needle. To collect denuded germinal vesicle (GV) oocytes, the cumulus cells were removed by gentle pipetting. The oviducts were removed from PMSG- and hCG-primed mice. The ampulla of the oviduct was punctured to release the clutch of ovulated oocytes 24 hr after hCG.
Denuded oocytes or cultured blastocysts were frozen on a glass slide with liquid nitrogen and dried overnight at −35° C. under vacuum. Individual oocytes or blastocysts were extracted in nanoliter volume under oil. Assays were designed to measure ATP, citrate and G6PDH by linking with NAD/NADH or NADP/NADPH which are enzymatically amplified in a cycling reaction allowing products to be measured by fluorometry.

C[C@]12CC[C@H](O)CC1=CC[C@@H]1[C@@H]2CC[C@]2(C)C(=O)CC[C@@H]12 [DHEA, dehydroepiandrosterone]
Body fat gain of ovariectomised mice ([1]; 0.6% DHEA diet): decreases this gain in body fat levels
Serum levels of E2 and P4 vs control ([1]; DHEA-treated group): equal
Number of secondary follicles vs regular chow [2]: more secondary follicles, although not statistically significant
Number of corpora lutea vs regular chow ([2]; significant only at 0.6%): fewer corpora lutea
Serum estradiol ([3]; 0.1% and 0.6% DHEA diets): significantly elevated
Serum testosterone ([3]; DHEA diet treatment groups): elevated in the treatment groups
Serum progesterone (marker of ovulation) ([3]; DHEA diets, 24 hours after hCG): lower in mice exposed to DHEA in a dose-dependent fashion
Decrease in ATP levels (trend, p=0.096) ([4]; 0.01% DHEA group): four percent
Decrease in ATP levels (trend, p=0.096) ([4]; 0.1% DHEA group): six percent
